Assay results from patent EP2321300B1, “CHLOROPHYLL CATABOLITES” (Universität Innsbruck, priority 2008, dated 2010).
At least one structure is not confirmed: it was looked up by name or label, or the drawing left a doubt.

Test system: Autoxidation von Linolensäure
Test: Antioxidant test: inhibition of hydroperoxide formation in radical-chain autoxidation of linoleic acid (after Stocker et al.), AIBN as radical starter, UV/Vis at 234 nm or HPLC
Assay type: biochemical
Conditions: Autoxidation of Linolensäure in the presence of air; b23 room temperature (37°C, 0,15 M Linolsäure, 2 mM AIBN, 6 % (v/v) Methanol); read-out: Konzentration c0,5 (Rate der Peroxidbildung auf die Hälfte reduziert)
Source text: Stocker et al. verwendeten zur Quantifizierung der antioxidativen Wirkung des Hämabbauproduktes Bilirubin ein einfaches Testsystem. Die essentielle Fettsäure Linolsäure, eine zweifach ungesättigte Fettsäure, ist sehr empfindlich gegenüber einer Oxidation durch freie Radikale. Derartige Oxidationen können in Form von Kettenreaktionen z.B. in Zellmembranen großflächige Schäden herbeiführen. In vitro wurde dieser "oxidative Stress" durch den Einsatz einer Azoverbindung (Radikalstarter) simuliert. Derartige Azoverbindungen bilden ständig, abhängig von der Temperatur durch Abspaltung von Stickstoff (N2) Kohlenstoffradikale, die wiederum mit den ungesättigten Bindungen der Fettsäuren reagieren können. Es bilden sich Fettsäureradikale die ihrerseits wiederum mit Sauerstoff reagieren. Das führt zur Bildung von Fettsäurehydroperoxiden, die wegen ihrer besonderen Absorptionseigenschaften in UV-Bereich (234 nm) spektroskopisch nachweisbar sind. Abhängig von der Konzentration des Radikalbildners steigt also mit der Zeit die Anzahl der Fettsäurehydroperoxidmoleküle an. Setzt man einen antioxidativ wirksamen Stoff zu, können Radikale abgefangen werden, und die Bildung der Hydroperoxide wird verlangsamt.
Das Ergebnis dieser Untersuchungen zeigt die Figur 8, in der die zeitliche Abhängigkeit der Zunahme oxidierter Linolsäure bei unterschiedlichen Konzentrationen der Antioxidantien Bilirubin bzw. […]

C=CC1=C(C)/C(=C/c2[nH]c(Cc3[nH]c(/C=C4\NC(=O)C(C)=C4C=C)c(C)c3CCC(=O)O)c(CCC(=O)O)c2C)NC1=O [Bilirubin]
IC50: ~40 µM
